Record: PubChem BioAssay AID1259254 (NCATS, 2017)
Aim: 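Genome-wide screen for genes that prevent DNA re-replication in cancer cells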 (primary screen). System: human HCT116 colorectal cancer cells. Reagents: single siRNA against human genes. Time to read-out: 3 days. Read-out: 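Nuclei stained with Hoechst and imaged; cell-cycle phase assigned by DNA content; G2 share scaled per plate, non-targeting siRNA 0%, GMNN siRNA 100%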. Scale: G2 robust z-score: higher = more G2 cells, more excess DNA replication. Call rule: 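Active siRNAs have a G2 robust z of 5 or more median absolute deviations over the median, which in these data means about 38% or higher of GMNN control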.
In all, the deposit lists about 59,000 reagents; below is a part drawn at random. About 1,550 of them (2.6%) count as active. 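G2 share is only a proxy for re-replication; each gene was hit by three separate siRNAs, and active genes were retested.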 The numbers tell different reagents against one gene apart. Further read-outs or replicates are left out here. Not stated in the record: the amount of reagent.

| Gene | reagent no. | G2 robust z-score | outcome |
| --- | --- | --- | --- |
| TSPAN10 | 1 | -1.09 | inactive |
| TSPAN10 | 2 | -0.447 | inactive |
| TSPAN10 | 3 | 2.49 | inactive |
| STEAP1 | 1 | -0.911 | inactive |
| STEAP1 | 2 | -0.638 | inactive |
| STEAP1 | 3 | 3.42 | inactive |
| PLCD3 | 1 | 0.038 | inactive |
| PLCD3 | 2 | 3.07 | inactive |
| PLCD3 | 3 | 0.935 | inactive |
| OSR1 | 1 | 3.59 | inactive |
| OSR1 | 2 | 1.19 | inactive |
| OSR1 | 3 | 0.293 | inactive |
| DYNLRB1 | 1 | 1.05 | inactive |
| DYNLRB1 | 2 | 0.768 | inactive |
| DYNLRB1 | 3 | -0.541 | inactive |
| MREG | 1 | -0.693 | inactive |
| MREG | 2 | -0.706 | inactive |
| MREG | 3 | -0.833 | inactive |
| PPP1R3C | 1 | -0.317 | inactive |
| PPP1R3C | 2 | -0.00819 | inactive |
| PPP1R3C | 3 | -0.106 | inactive |
| IKZF3 | 1 | -0.405 | inactive |
| IKZF3 | 2 | 1 | inactive |
| IKZF3 | 3 | 2.11 | inactive |
| C1orf35 | 1 | -0.029 | inactive |
| C1orf35 | 2 | 1.63 | inactive |
| C1orf35 | 3 | -0.561 | inactive |
| LOC730081 (retired record) | 1 | 0.99 | inactive |
| LOC730081 (retired record) | 2 | -0.293 | inactive |
| LOC730081 (retired record) | 3 | 0.449 | inactive |
| ATP4B | 1 | -0.18 | inactive |
| ATP4B | 2 | -0.0264 | inactive |
| ATP4B | 3 | 0.155 | inactive |
| ETS2 | 1 | -0.28 | inactive |
| ETS2 | 2 | -0.572 | inactive |
| ETS2 | 3 | -0.415 | inactive |
| PLA2G2C | 1 | -0.443 | inactive |
| PLA2G2C | 2 | 5.36 | active |
| PLA2G2C | 3 | -0.633 | inactive |
| NDN | 1 | 2.65 | inactive |
| NDN | 2 | 0.575 | inactive |
| NDN | 3 | -0.228 | inactive |
| FAR1 | 1 | -1.25 | inactive |
| FAR1 | 2 | 3.45 | inactive |
| FAR1 | 3 | 3.2 | inactive |
| GPR55 | 1 | 1.16 | inactive |
| GPR55 | 2 | 0.364 | inactive |
| GPR55 | 3 | 0.898 | inactive |
| PINX1 | 1 | -0.399 | inactive |
| PINX1 | 2 | -0.311 | inactive |
| PINX1 | 3 | 2.3 | inactive |
| WDR6 | 1 | -0.857 | inactive |
| WDR6 | 2 | -0.78 | inactive |
| WDR6 | 3 | -0.174 | inactive |
| LUC7L | 1 | 0.234 | inactive |
| LUC7L | 2 | -0.509 | inactive |
| LUC7L | 3 | 0.87 | inactive |
| FCRLB | 1 | 1.42 | inactive |
| FCRLB | 2 | -0.805 | inactive |
| FCRLB | 3 | -0.631 | inactive |
| RUFY1 | 1 | -0.433 | inactive |
| RUFY1 | 2 | -1.13 | inactive |
| RUFY1 | 3 | -0.247 | inactive |
| NOG | 1 | 2.31 | inactive |
| NOG | 2 | -0.591 | inactive |
| NOG | 3 | -0.792 | inactive |
| RPL34P34 | 1 | 2.34 | inactive |
| RPL34P34 | 2 | 0.34 | inactive |
| RPL34P34 | 3 | 5.41 | active |

Active calls, among the entries above:
| Gene | reagent no. | G2 robust z-score | outcome |
| --- | --- | --- | --- |
| PLA2G2C | 2 | 5.36 | active |
| RPL34P34 | 3 | 5.41 | active |
